{"source": "the supplement of paper PMC10338343", "note": "± gives the standard deviation. The list shows a part of the results. The uncertainty is large for many entries."}
{"system": "EfPiwi piRISC loaded with L1MC piRNA (26 nt)", "assay": "pre-steady-state target cleavage rate (min^-1); guide: L1MC piRNA 5'p-UAACUAAAUACUAUGCAAGCUGUAGG; MIWI and MILI are mouse PIWI proteins and EfPiwi is from a freshwater sponge; tags in brackets are library labels; higher = faster piRNA-guided slicing of the target", "settings": "auxiliary factor: none (no Gtsf1)", "summary_of_the_method": "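A burst-and-steady-state fit was used to obtain the pre-steady-state cleavage rate. The input data were sequencing reads of uncleaved targets, normalised to depth and to weakly complementary targets, from a […] transcribed, DNA-blocked target RNA library mixed with 1 nM active affinity-purified piRISC holding one synthetic guide, with or without 500 nM GTSF1 partner protein, in HEPES–potassium acetate buffer at 33 °C for 0–8 or 0–960 min. Three trials were pooled and k3 was capped at 0.0001 min^-1.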"}
{"sequence": "UCCUGGAUGUCGAUGCAUACUUUUUAGUUA", "pre-steady-state target cleavage rate": "< 0.0001"}
{"sequence": "UCCUGGAUGUCGAAGGAUAGUAUUUUGUUA", "pre-steady-state target cleavage rate": "< 0.0001"}
{"sequence": "UCCUGGAUCAGCUUGCUAUGUAUUUACAAA", "pre-steady-state target cleavage rate": "0.00041 ± 0.015"}
{"sequence": "UCCUCCUACAGCUUGCAUAGUAAAAAGUUA", "pre-steady-state target cleavage rate": "0.000427 ± 0.01"}
{"sequence": "UCCUGGAUGUCGAACGUAAUAUUUAGUUA", "pre-steady-state target cleavage rate": "0.000141 ± 0.039"}
